Assay results from publication PMC6891598 (Molecules, 2019).

Assay: general procedure: Fmoc solid-phase peptide synthesis; 2-Chlorotrityl chloride resin (GLS Biochem); HBTU/DIEA
Details: whole synthesis; for final HPLC purity: analytical RP-HPLC in MeCN and MeOH gradients (0.1% FA); for isolated yield: total yield

Substance: N-Undecanyl-Ile-Leu-Gly-His-Cit-Asp-Tyr-Lys-OH
- final HPLC purity: >89%
- isolated yield: 1.4%

Substance: HELM PEPTIDE1{I.L.G.H.[Cit].D.Y.K}$$$$V2.0 (SMILES CC[C@H](C)[C@H](N)C(=O)N[C@@H](CC(C)C)C(=O)NCC(=O)N[C@@H](Cc1c[nH]cn1)C(=O)N[C@@H](CCCNC(N)=O)C(=O)N[C@@H](CC(=O)O)C(=O)N[C@@H](Cc1ccc(O)cc1)C(=O)N[C@@H](CCCCN)C(=O)O)
- final HPLC purity: >97%
- isolated mass (scale 0.07 mmol): 5 mg
- isolated yield: 7.7%

Substance: N-Octadecanyl-Ile-Leu-Gly-His-Cit-Asp-Tyr-Lys-OH
- final HPLC purity: >94%
- isolated yield: 0.3%

Substance: PEPTIDE1{[N-mPEG4-Ile].L.G.H.[Cit].D.Y.K}$$$$V2.0
- final HPLC purity: >86%
- isolated yield: 2.9%

Substance: PEPTIDE1{[N-Dodecyl-D-Ile].[dL].G.[dH].[D-Cit].[dD].[dY].[dK]}$$$$V2.0
- final HPLC purity: >94%
- isolated yield: 1.2%

Substance: PEPTIDE1{[N-Dodecyl-Ile].L.G.H.[Cit].D.Y.K}$$$$V2.0
- final HPLC purity: >95%
- isolated yield: 0.7%

Substance: PEPTIDE1{[N-Tridecyl-Ile].L.G.H.[Cit].D.Y.K}$$$$V2.0
- final HPLC purity: >99%
- isolated yield: 0.4%

Substance: PEPTIDE1{[N-Hexyl-Ile].L.G.H.[Cit].D.Y.K}$$$$V2.0
- final HPLC purity: >92%
- isolated mass (scale 0.3 mmol): 1 mg
- isolated yield: 0.3%

Substance: PEPTIDE1{[Dodecanoyl].I.L.G.H.[Cit].D.Y.K}$$$$V2.0
- final HPLC purity: >99%
- isolated mass (scale 1 mmol): 159 mg
- isolated yield: 15.0%

Substance: PEPTIDE1{[N-Farnesyl-Ile].L.G.H.[Cit].D.Y.K}$$$$V2.0
- final HPLC purity: >89%
- isolated mass (scale 0.3 mmol): 9 mg
- isolated yield: 2.5%

Strings that start with PEPTIDE1 are HELM notation: dots part the residues, brackets hold end groups and non-standard residues.
